Data published in paper PMC9310128.
These are yes or no findings as the source states them, for the method shown. Binding seen in cells or lysates may run through a third protein. A result given as binding can be weak or reduced; the word gives no strength.

Biological target: T1, Biotinylated PEP3
T1 sequence (peptide, biotin (position not stated); cyclic peptide): CPATAERPC
Assay: pull-down; 30 ug biotinylated PEP3 on streptavidin-coated magnetic beads, 800 ug of SAT SVF lysate (WT and TrkA EC KO), overnight at 4 °C, washed with 0.05% Tween-20 TBS; anti-TrkA immunoblot; only the target purified

**Q.** “TrkA, smaller isoform (arrowhead in Figure 1F) (mouse (endogenous in adipose tissue)) (receptor)” was tested. Which binding did it give?
**A.** Its binding is “binds”.
